Measurements from the supplement of paper PMC3334620.
The full ranking holds about 33,000 sequences; the median of “E-score (-0.5 to 0.5)” is about -0.0059, and the highest 2% start at about 0.26. The list shows a part of the results.

biological target: T1, Cin5 (UniProt P40917); experiment: PBM E-score (8-mer binding enrichment) (E-score (-0.5 to 0.5)); higher = stronger / more preferred TF binding; details: protein concentration: 100 nM; construct: GST-full length
T1 sequence: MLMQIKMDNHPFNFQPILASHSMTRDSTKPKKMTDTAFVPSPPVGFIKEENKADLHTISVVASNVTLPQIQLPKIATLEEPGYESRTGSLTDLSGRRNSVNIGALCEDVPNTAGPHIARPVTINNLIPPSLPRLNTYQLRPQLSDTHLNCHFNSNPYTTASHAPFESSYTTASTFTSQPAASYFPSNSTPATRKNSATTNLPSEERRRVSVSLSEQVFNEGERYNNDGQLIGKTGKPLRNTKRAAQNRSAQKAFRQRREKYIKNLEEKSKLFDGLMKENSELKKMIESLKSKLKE
In short: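 Detection of bound protein used fluorescent anti-GST, with scans normalised by masliner. The proteins were GST-tagged yeast transcription factors applied at about 100-200 nM to universal all-10-mer Agilent arrays made double-stranded by primer extension. Each ungapped eight-base word, pooled with its reverse complement, was scored with an E-score from the Universal PBM Analysis Suite.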

Sequence	PBM E-score
AATACAAG	0.294
CAGCTCCA	-0.00403
CCGCCCCC	-0.375
CTCGAAAC	0.053
CAGCGGGC	-0.0249
CAAACAGG	-0.15
AAAAACTT	-0.0892
CCTGCTCC	-0.132
AATCATGA	0.186
AATAAAAG	0.0785
CCAAGTCA	0.0677
TCAAGACA	0.0207
AGTTTGGC	0.0472
GGGACTCA	-0.303
TCGCACGA	-0.104
CAGATTCG	-0.00465
CCAGACCC	-0.233
ACCAGATG	-0.091
CCGAGGGA	-0.287
GGTGACAC	-0.0788
AGGCGCCA	-0.0123
CGGGCCCC	-0.12
CGCTCTGC	-0.13
AACTCGTA	0.219
ATTTCCTC	0.09

Sequence	PBM E-score
CATAGCGG	-0.139
AACGCACA	0.0815
GCCGCGGC	0.214
ATCATGGA	-0.00019
CGAGAAAG	0.0439
AAGTTTGC	0.19
CGAGCAGA	-0.17
GCGACCGA	0.0144
AACTTCCC	0.0423
GGGTTAAA	-0.0784
AATGGAGC	-0.0442
GGTCCGAC	-0.153
CAGTTTCG	0.00376
CTTCTGTA	-0.0475
CCTCCCCG	0.0326
CGATCAAA	-0.00971
AGGAATTA	0.208
TAACCGCA	0.24
ATGCTTGG	-0.0358
CTACGAGA	-0.0322
ATCGATCC	-0.0004
CATGCGCG	-0.00114
AAGAAGTC	-0.0774
ATTTTTCA	0.131
AGAAGAGA	-0.0776

Sequence	PBM E-score
CAACTCAG	-0.023
AGATGCAT	0.189
ACCTTACG	0.0253
GGATATTA	0.143
CGTGTGCC	-0.197
GCAGCCCC	-0.0754
ATGGCGCG	-0.0464
AGGAGACC	-0.201
CCGTGCGC	-0.0601
CATGATGC	0.0839
AACGTCGG	-0.0613
ATAGCTTA	0.154
ATGGCTAG	0.0457
ATCCTCTA	-0.16
GGTAAGAA	0.011
ATTTTCAG	0.212
TCGACAAA	0.0681
GCTAGCCC	-0.131
CTAGCGGA	-0.092
GTAAACCA	0.0303
CACGCGGG	-0.182
CGAGGCTC	-0.255
ATTCGTAG	0.016
CTCCCCAC	-0.108
AGTAATGC	0.0695

Sequence	PBM E-score
AACCGAGA	0.103
GCTTCGCC	-0.297
CCTTATCG	-0.0177
AGGTACGC	0.0585
AACGCTGG	-0.115
ACGTATTC	0.112
AGCCGAAT	0.086
CATATCAA	0.228
CGCTAGGC	-0.204
GGCCCCAA	-0.0478
CAGGTATA	0.0165
AAGATAGA	0.0499
ACTTGCGG	-0.21
ACCAGCTG	-0.0831
AAGTCAGG	0.0721
TACGTACA	0.229
TCGCAAGA	-0.0527
TCCCCTAA	0.0848
CTTGACGC	-0.162
GTCGGAGA	-0.142
ACTGCTGC	0.0432
ATCCAGAG	0.161
AGTCAGCG	0.0287
GAACCACC	0.0658
GTGCAAAA	-0.037

Two neighbouring entries already listed, for reference:
Sequence	PBM E-score
CTTCTGTA	-0.0475
CCTCCCCG	0.0326

Next part.

Sequence	PBM E-score
AAATTCAG	0.0731
CCATAGGA	-0.0839
TCCAGGAA	-0.0393
ACCAATAA	0.0617
CTGCGTAA	0.0291
CACCCAAA	0.115
CTTTTGCA	0.0331
AACCTAGC	-0.0341
CCGTTGGA	-0.123
AGAGAGAG	-0.0167
ATAACCCA	0.0804
GATTGTCA	0.0599
TCCGACGA	0.0651
TGCGTCAA	-0.0866
CAATTCCC	0.112
CATTGCAC	0.145
ACATTAAT	0.106
CTTCAATC	-0.0206
CGGAGGGC	-0.163
AAAATGAC	0.0872
ACCCTCGA	-0.204
GTACAAGA	-0.059
AGCTGTTA	0.00406
CAAATAGA	0.2
CTCCTAGA	-0.158

Sequence	PBM E-score
AGAACCCT	-0.209
ATTGAGCA	0.0163
AAGCTGTA	0.202
CGCAGTCA	-0.091
ACATGACT	-0.0712
ACCTGTGG	-0.18
CTATTGCA	0.0887
ACGCATAC	0.00499
ACCGTCGC	-0.0621
AGTTTCAC	0.0197
CGCTGGAC	-0.209
AGAGTGGG	-0.13
ACTTCCGC	0.0231
ATAATCGA	0.178
CAGTTGGG	-0.121
CAGTTCCC	0.0355
ACGGCTGC	-0.192
CTCAGGAG	-0.198
CAGACTAG	-0.237
CCATCGAA	0.0633
CACCAGTG	-0.0701
CACGGAGG	-0.173
CATACGGG	-0.166
CAAGTATA	-0.0347
AGGGAAGA	-0.252

Sequence	PBM E-score
AGCCGTCG	-0.0268
AAATACTG	0.161
ACTGCGCG	-0.0752
GACTATTA	0.0205
TTTAAAAA	-0.124
ATGGATAA	0.239
CATGTAGG	-0.101
AGGGAATC	0.111
ATAACGAT	0.0688
ATGGCAGC	-0.0278
CTCACTGC	-0.0229
AGGAAAAC	-0.00842
ACCACGAA	-0.0559
ACGTGATG	0.139
AAACAGCG	0.224
GTGGACGA	-0.038
CGTACCAA	0.0416
CTCTGTGA	0.0243
AGGTGAGA	0.0308
CTAGTACA	0.0849
GGCTATTA	0.0403
ATCCGAAC	0.0693
AGAGCCGA	0.058
AGCTTTCC	-0.0292
CCAATTGG	0.0961

Seven records picked at random from those above:
Sequence	PBM E-score
AGGGAATC	0.111
AGCTTTCC	-0.0292
ATGGCAGC	-0.0278
CCAATTGG	0.0961
CATGTAGG	-0.101
CTCTGTGA	0.0243
AGAGCCGA	0.058

(further entries)

Sequence	PBM E-score
CCGTTTTA	0.03
GACTAACC	-0.0832
GCTGCTTA	0.16
ACATAGTG	0.0936
ACGAAACG	0.0719
GGTGGATA	-0.0345
CACTCAAC	0.217
TAGATAAA	0.154
CGCTCGAA	-0.06
GACAAGTA	0.0326
ACAAACCG	0.0156
AAACCACA	0.16
AGAGCTTC	-0.138
AGGTCCTG	-0.142
AGACGTCC	-0.0972
ATCTGAAA	0.0363
CCCTGTAG	-0.0847
CACCGGGG	-0.28
GATACTGC	0.186
ATTCACTG	-0.0867
AGCGTGCA	0.103
CTAATGGC	-0.0137
CGGTGGGA	-0.0783
CCCACAAC	-0.106
ATAGGCCA	0.0284

Sequence	PBM E-score
CACTCGCA	-0.00783
AAAACTCT	-0.184
AATCAGTC	0.0788
ACTATCAG	-0.00105
CAGACCGC	0.0618
CACATTCA	0.0477
CCAAAAAC	0.123
AGATCTCG	0.0286
ATGGTTTC	0.0652
CAATTGGA	0.0923
ACCGGGCG	-0.328
AGTACTGA	0.104
ATGCTAGC	-0.007
CTTATAGA	0.13
TAAGTCAA	0.0506
GACAATCC	0.148
AAGCAAGA	0.126
ACCATTGA	-0.00031
TCGACCGA	-0.062
GCCTACGA	0.0143
ACCACGCC	-0.269
GTATCGTA	0.148
CAACACGA	0.0657
CGAATAAG	-0.121
CAAGTCCA	-0.128

Sequence	PBM E-score
AACGCAAG	0.00496
CGGCCCGA	-0.121
CAACCCCC	-0.356
GACATCTA	0.0357
CCACATGG	-0.152
CACGTGTA	0.019
CTTGTCAA	-0.0299
AATAATAT	0.356
AGCCATTC	0.09
AGGAGAAG	-0.129
AGTACGAC	0.0931
CTAGGGAC	-0.16
CAGCCATA	-0.0852
CACAGAAC	-0.157
GTGTCTCA	-0.0352
CGAGGCCG	-0.204
AAGTCTGA	-0.254
ACGGGGAT	-0.0426
AACGAATA	0.0414
CACCCTCG	-0.0636
GCAGTAGC	-0.198
TTGGAAAA	0.0334
AGGCAATA	0.029
CTTGGGTC	-0.0931
GAGGTCCA	-0.14

Sequence	PBM E-score
CAAACTGG	0.0735
ACGCGAGC	0.025
TCGAGTAA	0.191
AGCTGTTG	0.0373
AGGCGCCT	-0.0953
ATGAGAAG	-0.0766
AATCCTAT	0.202
CCAGGTTC	-0.258
CCCAATCC	-0.013
CCATCAGC	-0.00921
GGAGACAA	0.0469
CTTTCCTC	-0.146
GCGACCCA	-0.0919
GGCAGGCC	-0.267
CCCCCCGC	-0.413
GCTGTGCA	-0.242
CAAAGGTG	-0.0729
GGCCAGCA	-0.0464
ATGCAGCG	-0.15
AAAACGAC	-0.0346
AGAATAGG	0.175
AGAGGATA	-0.0885
ATGATCCG	-0.0235
AGTGGTAC	-0.0959
GTTCCGGA	0.0526

Sequence	PBM E-score
CCTGCCAG	-0.245
ACGTTCCG	0.00868
ATCTAATA	0.19
CCCCATCA	0.0908
CAGCTATC	-0.0573
ACTAGACA	0.0434
CGTAGATC	0.0806
TATTGTGA	0.132
AGCTTCGC	-0.0766
CGTCCTAG	-0.189
AAAGACTA	-0.141
AAGCCGGT	0.00444
GCGGGAGC	-0.207
CAAGGGAG	-0.178
ATCCCCAT	0.086
CCGTACGC	-0.175
ATGTATGC	0.185
GCGGACAA	0.094
AAGAGTTG	0.0662
AGTATGCA	0.0195
CACTCGAA	-0.0491
CTCTACCA	0.00013
AGTAGTGA	0.0605
AGAGGGAT	-0.228
GGCTATCA	-0.072

Sequence	PBM E-score
AGGGAGGG	-0.126
CTCGCCAG	-0.167
CACCCGGC	-0.351
GTCCGGAC	0.224
ACCAATCG	0.118
GTTCCAAC	-0.102
ACTCGCTG	-0.0532
ACCTCAGG	-0.0652
AGAATGAC	0.0989
CAGAGGCG	-0.0867
CAGTCTTC	-0.184
AAGTGAAT	0.222
TAGTTACA	0.0444
AGCTCGAG	-0.0648
CGTATACG	0.0769
AACTAGAC	0.0502
GAATTTCC	0.101
ATCAGGCC	-0.0206
GTCATATA	0.168
GAGCGCAC	-0.0882
AAGTCGGA	-0.047
AATCAGAT	0.12
GAAGGAAC	-0.167
TGCCGCCA	-0.00336
CTCTCGAA	-0.104

Sequence	PBM E-score
GTGAACTA	-0.0419
CGGAAGAG	-0.0136
GGATATGA	0.0996
AAAAATAC	0.159
ACAAACTC	0.059
ACCTACGG	-0.381
GAAAGTGC	-0.103
CTTTAAGA	0.12
GAGCGACA	-0.0378
GCTGAGCA	0.021
GCCCGCCC	-0.0859
GTTAACCA	0.0943
CACAGTAA	0.209
GTGCAAGA	0.0774
ACTCACAT	0.0812
ATTATTCC	0.273
ACCGTTCA	-0.0881
ATGGGTGG	0.194
ACGCAGAC	-0.065

Taken from above.
ATGGGTGG | PBM E-score: 0.194
ACCGTTCA | PBM E-score: -0.0881
